Data from PubChem BioAssay AID743255 (National Center for Advancing Translational Sciences (NCATS), 2014).
Out of some 390,000 compounds screened, about 910 (0.23%) were called active. The shares of active, inactive and inconclusive entries below differ from those in the screen. Calls come from the whole dose curve; as a rule, active = well fitted inhibition curve with a large enough effect; inconclusive = small, poorly fitted or top-dose-only effect; inactive = no such curve, though single readings can be large or run the other way. A potency beside an inconclusive call is a rough fit, not a confirmed value.

Protein sequences, listed by entry. Tags and fused reporters are not part of them. Lines headed by an entry give the natural chain unless they say otherwise; changes in a name come on top.
UniProt O94782: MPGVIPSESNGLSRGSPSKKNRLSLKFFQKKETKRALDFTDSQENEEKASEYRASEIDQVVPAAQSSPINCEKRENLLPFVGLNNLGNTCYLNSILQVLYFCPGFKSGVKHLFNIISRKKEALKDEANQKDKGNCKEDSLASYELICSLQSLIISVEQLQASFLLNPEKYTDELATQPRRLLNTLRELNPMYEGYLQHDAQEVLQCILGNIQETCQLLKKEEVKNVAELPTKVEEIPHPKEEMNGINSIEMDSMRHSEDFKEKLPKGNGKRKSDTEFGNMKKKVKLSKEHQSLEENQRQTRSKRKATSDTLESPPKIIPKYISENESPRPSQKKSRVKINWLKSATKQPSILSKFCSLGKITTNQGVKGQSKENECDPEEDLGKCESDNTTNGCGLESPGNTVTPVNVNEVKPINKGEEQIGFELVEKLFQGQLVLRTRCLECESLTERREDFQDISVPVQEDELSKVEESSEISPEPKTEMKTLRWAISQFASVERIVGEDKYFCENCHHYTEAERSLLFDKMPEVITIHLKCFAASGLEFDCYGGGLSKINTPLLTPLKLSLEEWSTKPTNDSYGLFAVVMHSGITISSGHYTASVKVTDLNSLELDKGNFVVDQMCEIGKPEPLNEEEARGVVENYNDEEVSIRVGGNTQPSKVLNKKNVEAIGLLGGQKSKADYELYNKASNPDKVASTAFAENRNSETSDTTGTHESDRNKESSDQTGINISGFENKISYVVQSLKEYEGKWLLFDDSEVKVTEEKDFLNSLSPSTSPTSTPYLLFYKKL

Target: Ubiquitin carboxyl-terminal hydrolase 1 (Homo sapiens) (UniProt O94782)
Experiment: Inhibitors of USP1/UAF1: Primary Screen; note: nearly all actives have a fitted effect of over 60% in size
Settings: recombinant USP1/UAF1, Ub-Rhodamine cleavage fluorescence; activity change, negative = inhibition: at 57.1 µM (top of the series)
Summary of the method: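 USP1/UAF1 complex (1 nM) preincubated 15 min at room temperature with compound, then Ub-Rho substrate (150 nM final) added. Kinetic fluorescence at 480/540 nm over 6 reads at 60 s intervals; 50 mM HEPES pH 7.8, 0.5 mM EDTA, 0.1 mg/ml BSA, 1 mM TCEP, 0.01% Tween-20.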
% is set by controls: 0 for no effect and ±100 for the full control effect; potency is the fitted concentration of half-maximal effect.

Row | Structure (SMILES) | Potency | activity change, negative = inhibition
1 | O=C(COc1ccc(/C=N/NC(=O)c2cc3ccccc3o2)cc1Br)Nc1ccccc1 | inconclusive: 0.708 µM [inhibitor, full curve, poor fit] | –
2 | Cc1cc(C)cc(OCCCn2c(-c3ccc(Cl)cc3)nc3ccccc3c2=O)c1 | inconclusive: 5.62 µM [inhibitor, partial curve, poor fit] | –
3 | O=C(O)CSC(=S)N1CCCC1 | inconclusive: 50.1 µM [inhibitor, partial curve, poor fit] | –
4 | O=C(Cn1cc(C(=O)COc2ccccc2)c2ccccc21)NCc1ccco1 | inconclusive: 44.7 µM [inhibitor, partial curve, poor fit] | –
5 | Cc1onc(-c2ccccc2)c1C(=O)N1CCN(S(=O)(=O)c2ccc(OC(F)(F)F)cc2)CC1 | inconclusive: 0.708 µM [inhibitor, full curve] | –
6 | CC(C)OCCCNC(=O)c1ccc(Cn2c(=O)c3cccn3c3cccnc32)cc1 | inconclusive: 31.6 µM [inhibitor, single point] | –
7 | CS(=O)(=O)c1ccc(N)c(SSc2cc(S(C)(=O)=O)ccc2N)c1 | inactive | –
8 | Cc1cccc(CSc2nc(=O)c3c(n2C)NC(=O)CC3c2cc(F)cc(F)c2)c1 (stereo not drawn) | inconclusive: 44.7 µM [inhibitor, single point] | –
9 | Cc1cc(S(=O)(=O)Nc2nc(CN3CCOCC3)nc3sc4c(c23)CCC4)ccc1F | inconclusive: 5.01 µM [inhibitor, full curve, poor fit] | –
10 | COc1ccc2[nH]c(C)c(CCNC(=S)Nc3cc(C)ccc3C)c2c1 | inconclusive: 25.1 µM [inhibitor, partial curve] | –
11 | Cc1ccc(NC(=O)c2nc[nH]c2C(=O)NCCCCCNC(=O)OC(C)(C)C)cc1 | inconclusive: 50.1 µM [inhibitor, partial curve] | –
12 | Nc1nc(-c2sc3nc4c(cc3c2N)CCCC4)nc(N2CCOCC2)n1 | inconclusive: 0.891 µM [inhibitor, full curve, poor fit] | –
13 | COc1ccc(CCN(C)c2ncnc3sccc23)cc1OC | inactive | –
14 | O=C(CCNc1ccc(F)c(Cl)c1)c1ccco1 | inconclusive: 50.1 µM [inhibitor, single point] | –
15 | O=C(CCn1c(=O)c2sccc2n(CC(=O)Nc2ccccc2)c1=O)NCc1ccccc1Cl | inconclusive: 7.08 µM [inhibitor, single point] | –
16 | COc1cccc(CNCc2cccn2-c2nnc(N3CCN(c4ccccc4)CC3)s2)c1 | inactive | –
17 | Cc1cc(C(=O)CSc2nnc(N)s2)c(C)n1Cc1ccco1 | inactive | –
18 | Cc1nn(-c2ccccc2)c(Cl)c1CN(C(=O)CCl)c1cccc2ccccc12 | inconclusive: 31.6 µM [inhibitor, partial curve] | –
19 | COc1ccc(N2CCc3c(C)nc4c(OC)cccc4c32)cc1 | inactive | –
20 | COC(=O)Nc1nc(-c2cc(Cl)ccc2Cl)cs1 | inconclusive: 3.16 µM [inhibitor, full curve, poor fit] | –
21 | CN(C)c1ccc(NC(=O)Cn2nnc3sc4c(c3c2=O)CCC(C(C)(C)C)C4)cc1 (stereo not drawn) | inactive | –

Single values from the entries so far.
`CC(C)OCCCNC(=O)c1ccc(Cn2c(=O)c3cccn3c3cccnc32)cc1` | Potency: inconclusive: 31.6 µM [inhibitor, single point]
`CN(C)c1ccc(NC(=O)Cn2nnc3sc4c(c3c2=O)CCC(C(C)(C)C)C4)cc1` (stereo not drawn) | Potency: inactive
`O=C(CCn1c(=O)c2sccc2n(CC(=O)Nc2ccccc2)c1=O)NCc1ccccc1Cl` | Potency: inconclusive: 7.08 µM [inhibitor, single point]
`Cc1cc(S(=O)(=O)Nc2nc(CN3CCOCC3)nc3sc4c(c23)CCC4)ccc1F` | Potency: inconclusive: 5.01 µM [inhibitor, full curve, poor fit]
`Cc1cc(C(=O)CSc2nnc(N)s2)c(C)n1Cc1ccco1` | Potency: inactive
`COc1cccc(CNCc2cccn2-c2nnc(N3CCN(c4ccccc4)CC3)s2)c1` | Potency: inactive

The list continues:

Row | Structure (SMILES) | Potency | activity change, negative = inhibition
22 | CCOc1ccc(NC(=O)COC(=O)c2c(OC)cccc2OC)cc1 | inconclusive: 44.7 µM [inhibitor, partial curve] | –
23 | O=C(CNS(=O)(=O)Cc1ccccc1)NCc1ccccc1 | inactive | –
24 | Cc1ccc2c(c1)c1c(c(=O)n(-c3ccccc3C)c(=O)n1CC(=O)c1ccc(Cl)cc1)n2C | inconclusive: 5.62 µM [inhibitor, partial curve] | –
25 | COc1ccc(NC(=O)CSC2=Nc3ccccc3N=C(c3ccc(F)cc3)C2)cc1OC | inconclusive: 0.0891 µM [inhibitor, full curve, poor fit] | –
26 | C=CCN(Cc1ccc(Br)s1)C(=O)c1ccc(OCc2c(C)noc2C)cc1 | inactive | –
27 | O=C(C[C@@H]1C/C=C\C[C@H](NC(=O)OCC2c3ccccc3-c3ccccc32)C(=O)OC[C@H]2CCCN2C1=O)N[C@@H](CO)Cc1ccccc1 | inconclusive: 7.94 µM [inhibitor, partial curve, poor fit] | –
28 | COc1cc2c(cc1OC)-c1cc3ccc4c(c3c[n+]1CC2)OCO4 | active: 25.1 µM | –
29 | COc1ccc2cc(CCNC(=O)c3cc4ccccc4o3)c(=O)[nH]c2c1 | inactive | –
30 | COc1cccc(OCCNC(=O)c2cccc(OC)c2)c1 | inconclusive: 44.7 µM [inhibitor, partial curve] | –
31 | Cc1ccc(S(=O)(=O)c2c(N)n(/N=C/c3ccco3)c3nc4ccccc4nc23)cc1C | inactive | –
32 | O=C(OCC(=O)N1CCc2ccccc21)c1ccc([N+](=O)[O-])o1 | inconclusive: 44.7 µM [inhibitor, partial curve, poor fit] | –
33 | COc1cccc(C2=Nc3cccc4cccc(c34)N2)c1 | inconclusive: 35.5 µM [inhibitor, partial curve] | –
34 | C=CCC[C@H](Cc1ccc(F)cc1)C(=O)O[C@H](CNC(=O)[C@@H](CC=C)CC(=O)N(CCO)Cc1ccccc1)c1ccccc1 | inconclusive: 44.7 µM [inhibitor, partial curve, poor fit] | –
35 | O=C(Nc1ccc(F)cc1F)c1noc2c1CCc1ccccc1-2 | inconclusive: 7.94 µM [inhibitor, partial curve] | –
36 | CC(C)c1cnc2c(c1SCc1cccc(C(F)(F)F)c1)c(=O)n(C)c(=O)n2C | inconclusive: 0.794 µM [inhibitor, full curve, poor fit] | –
37 | COc1ccccc1N1CCN(C(=O)CSc2nc3ncnc(N)c3[nH]2)CC1 | inconclusive: 3.98 µM [inhibitor, partial curve] | –
38 | O=C(NCC#CCOCc1ccccc1)c1ccccc1 | inactive | –
39 | COc1ccc(C2=CC(=O)C[C@H](c3ccc(Cl)cc3)C2)cn1 | inconclusive: 44.7 µM [inhibitor, partial curve, poor fit] | –
40 | CCCCC1=CC2=CC(=O)C(C)(OC(=O)CCc3ccccc3)C(=O)C2=CO1 (stereo not drawn) | inconclusive: 22.4 µM [inhibitor, single point] | –
41 | Cc1nn(CC(=O)NCc2ccc(OC(C)C)cc2)c(=O)c2c(C)n(-c3ccc(Cl)cc3)nc12 | inconclusive: 10 µM [inhibitor, partial curve] | –
42 | FC(F)(F)c1ccc(CN2CCCCCC2)cc1 | inconclusive: 3.98 µM [inhibitor, partial curve] | –

Row | Structure (SMILES) | Potency | activity change, negative = inhibition
43 | Cc1ccc(S(=O)(=O)N(C)c2ccc(OCC(=O)N3CCCC(C(F)(F)F)C3)cc2)cc1 (stereo not drawn) | inconclusive: 5.62 µM [inhibitor, full curve] | –
44 | COc1cc2c(cc1OC)n(CC(=O)c1ccc(F)cc1)c(=O)n1nc(CCn3nc(C)cc3C)nc21 | inactive | –
45 | COc1cccc(NS(=O)(=O)c2ccc3[nH]cc(C(=O)N(C)C4CCCCC4)c(=O)c3c2)c1 | inconclusive: 70.8 µM [inhibitor, partial curve, poor fit] | –
46 | O=C1C(c2ccccc2)=[N+]([O-])c2ccccc21 | inconclusive: 56.2 µM [inhibitor, partial curve, poor fit] | –
47 | Cc1ccc2c(c1)C1OCCC1C1N2C(=O)C2C(C(=O)O)C3C=CC21O3 (stereo not drawn) | inconclusive: 0.631 µM [inhibitor, full curve, poor fit] | –
48 | Cc1ccc(C)c(NC(=O)Cn2c(=O)n(CCC(=O)NCc3ccc4c(c3)OCO4)c(=O)c3ccccc32)c1 | inconclusive: 0.199 µM [inhibitor, full curve] | –
49 | CCCN1CCCc2cc(CN(CCCN3CCOCC3)C(=O)Nc3ccc(CC)cc3)ccc21 | inconclusive: 8.91 µM [inhibitor, partial curve] | –
50 | CC(=O)N1c2ccc(S(=O)(=O)N3CCC(C(=O)NC(C)c4ccccc4)CC3)cc2CC1C (stereo not drawn) | inconclusive: 0.708 µM [inhibitor, full curve, poor fit] | –
51 | COc1ccc(S(=O)(=O)c2c(SC)nn(Cc3ccccc3C)c2NC(C)=O)cc1 | inconclusive: 0.251 µM [inhibitor, full curve, poor fit] | –
52 | NC(=O)c1cc(S(=O)(=O)NCC2CCC(C(=O)Nc3ccc(Cl)cc3)CC2)cs1 (stereo not drawn) | inactive | –
53 | O=C(C=C(C(=O)c1ccccc1)c1ccccc1)c1ccccc1 | inconclusive: 35.5 µM [inhibitor, single point] | –
54 | O=C(NCCS(=O)(=O)N1CCN(c2ccccc2)CC1)C1CC(=O)N(c2ccccc2)C1 (stereo not drawn) | inconclusive: 28.2 µM [inhibitor, partial curve, poor fit] | –
55 | CC1CCCCN1CC(=O)N1CCCc2c1c(=O)oc1ccc(OCc3ccccc3)cc21 (stereo not drawn) | inconclusive: 8.91 µM [inhibitor, partial curve, poor fit] | –
56 | O=C1Cc2ccccc2C(=O)N1CCc1ccccc1 | active: 5.62 µM | –
57 | CCOc1ccccc1C(=O)Nc1ccc(S(=O)(=O)N2CCCCC2c2cccnc2)cc1 (stereo not drawn) | inconclusive: 8.91 µM [inhibitor, single point] | –
58 | COc1cccc(NC(=O)CSC2=Nc3ccccc3C3=NC(CCC(=O)NCc4ccco4)C(=O)N23)c1 (stereo not drawn) | inconclusive: 1.41 µM [inhibitor, full curve] | –
59 | Cc1nc(SCC(=O)c2ccccc2)c(C#N)c(-c2ccco2)c1C(=O)NCc1ccco1 | – | inconclusive: -29.7% [inhibitor]
60 | CCC(COC)Oc1cc(NCc2ccccc2)c2ncn(C(C)C)c2c1 (stereo not drawn) | active: 12.6 µM | –
61 | COC(=O)c1ccc(NC(=O)CN2C(=O)CSC2=O)cc1 | inactive | –
62 | Cc1ccccc1S(=O)(=O)N1[C@@H](c2ccc(Cl)cc2)C(C(=O)O)=CC[C@H]1c1ccc(Cl)cc1 | inactive | –
63 | COc1cc(/C=C2\C(=O)N(c3ccc(S(N)(=O)=O)cc3)N=C2C)ccc1OC(=O)c1ccco1 | inconclusive: 0.794 µM [inhibitor, full curve, poor fit] | –
